Measured values published in US4377574A, “Contraceptive treatment of male mammals” (The Salk Institute For Biological Studies, priority 1981, dated 1983).
Not every detail of the peptide structures is certain; ends, links or a residue may be inferred. Where a SMILES comes first, the peptide text is derived from it. [ ]: non-standard residue; d: D form. The star is where a group is joined. dPhe(4-Cl) = N[C@H](Cc1ccc(Cl)cc1)C(=O)O; dPhe(4-F) = N[C@H](Cc1ccc(F)cc1)C(=O)O; NMeL = CN[C@@H](CC(C)C)C(=O)O; ΔPro = O=C(O)[C@@H]1C=CCN1; Acryloyl = C=CC(=O)*

Assays:
[1] = tested on: dissociated rat pituitary cells; experiment: in vitro inhibition of LRF-induced LH release, dissociated rat pituitary cells (ICR50); type: cell-based; conditions: 3 nanomolar LRF; test peptide 1 to 100 nanomolar; rat LH radioimmunoassay; ratio printed as x/1
male rats [2] = experiment: contraceptive treatment of male rats, 14-day daily injection; type: in vivo, rat; conditions: for plasma androgen levels / seminal vesicles weight / spermatogenesis / testes weight: male rats about 320 g, injection in 0.2 ml corn oil; for plasma androgen levels / seminal vesicles weight / spermatogenesis / testes weight / Testosterone level relative to control animals / dihydrotestosterone (DHT) level relative to control animals / immunoreactive FSH level relative to control animals / immunoreactive LH level relative to control animals: 1 milligram once a day for 14 days; for recovery of testes and seminal vesicle weights and spermatogenesis after cessation of 14-day administration: 1 milligram daily for 14 days; for desire to mate: 1 milligram daily; for histological examination of the testes following the 14-day treatment: after cessation of daily injections of 1 milligram
Text: The peptide is used at a level effective to reduce testes and seminal vesicles weights and also to inhibit spermatogenesis after a 14-day administration to male rats. […] Prostate weights of male rats recover in 2-3 weeks and seminal vesicles weights in 4-5 weeks. It is preferred to use dosage levels in the range of from about 0.1 to about 1 milligram per rat per day, which can be administered without detrimental side effects.
Male rats (about 320 grams each) are each treated with 1 milligram of the peptide synthesized in Example I, once a day, for 14 days by injection in 0.2 ml. of corn oil. All the rats show a decrease in testes and seminal vesicles weight, spermatogenesis and plasma androgen levels.
Full recovery of testes and seminal vesicle weights and spermatogenesis ultimately occurs following cessation of the 14-day peptide administration. […] Fertility, as assessed by the ability to impregnate females, is restored in all of the rats which have not been sacrificed within 6 weeks after cessation of the injections.
A first group (I) of male rats (about 320 grams each) are each treated with 1 milligram of Peptide A synthesized in Example III, every day for 14 days, by injection in 0.2 ml. of corn oil. All the rats show a decrease in testes and seminal vesicles weight, spermatogenesis and plasma androgen levels.
Full recovery of testes and seminal vesicle weights as well as spermatogenesis occurs following cessation of the 2-week period of administration.

[3] = binding affinity relative to LRF
male rats [4] = experiment: male rats, 14-day daily injection of antagonist plus testosterone propionate (Group II); type: in vivo, rat
[5] = male rats, following cessation of treatment for 14 days

SMILES	ICR50: molar concentration ratio of test peptide to LRF (antagonist/LRF) required to reduce LH released to 50 percent of control [1]	plasma androgen levels (male rats [2])	seminal vesicles weight (male rats [2])	spermatogenesis (male rats [2])	testes weight (male rats [2])	recovery of testes and seminal vesicle weights and spermatogenesis after cessation of 14-day administration (male rats [2]; male rats)	desire to mate (male rats [2]; male rats, antagonist alone)	Testosterone level relative to control animals (male rats [2]; male rats)	dihydrotestosterone (DHT) level relative to control animals (male rats [2]; male rats)	immunoreactive FSH level relative to control animals (male rats [2]; male rats)	immunoreactive LH level relative to control animals (male rats [2]; male rats)	histological examination of the testes following the 14-day treatment (male rats [2]; male rats)	also measured
C=CC(=O)N1CC=C[C@H]1C(=O)N[C@H](Cc1ccc(Cl)cc1)C(=O)N[C@H](Cc1c[nH]c2ccccc12)C(=O)N[C@@H](CO)C(=O)N[C@@H](Cc1ccc(O)cc1)C(=O)N[C@H](Cc1c[nH]c2ccccc12)C(=O)N[C@@H](CC(C)C)C(=O)N[C@@H](CCCNC(=N)N)C(=O)N1CCC[C@H]1C(=O)NCC(N)=O [B] (Acryloyl-[ΔPro][dPhe(4-Cl)][dW]SY[dW]LRPG-NH2)	0.04												
CC(=O)N1CC=C[C@H]1C(=O)N[C@H](Cc1ccc(Cl)cc1)C(=O)N[C@H](Cc1c[nH]c2ccccc12)C(=O)N[C@@H](CO)C(=O)N[C@@H](Cc1ccc(O)cc1)C(=O)N[C@H](Cc1c[nH]c2ccccc12)C(=O)N[C@@H](CC(C)C)C(=O)N[C@@H](CCCNC(=N)N)C(=O)N1CCC[C@H]1C(=O)NCC(N)=O [E] (Ac-[ΔPro][dPhe(4-Cl)][dW]SY[dW]LRPG-NH2)	0.04												
CC(=O)N1CC=C[C@H]1C(=O)N[C@H](Cc1ccc(Cl)cc1)C(=O)N[C@H](Cc1c[nH]c2ccccc12)C(=O)N[C@@H](CO)C(=O)N[C@@H](Cc1ccc(O)cc1)C(=O)N[C@H](Cc1c[nH]c2ccccc12)C(=O)N(C)[C@@H](CC(C)C)C(=O)N[C@@H](CCCNC(=N)N)C(=O)N1CCC[C@H]1C(=O)NCC(N)=O [Example I, [Ac--dehydro Pro^1, pCl--D--Phe^2,D--Trp^3,6,N^α MeLeu^7]--LRF] (Ac-[ΔPro][dPhe(4-Cl)][dW]SY[dW][NMeL]RPG-NH2)	0.043	decrease	decrease	decrease	decrease	Full recovery	no desire to mate	decreased	decreased	decreased	decreased	arrested spermatogenesis for a period of several weeks	testes weights relative to control group (male rats [2]; about four weeks after cessation of 14-day administration): about 80%; spermatogenesis during recovery (male rats [2]; about seven days after the four-week point following cessation): good spermatogenesis is apparent in a majority of the tubules; time to restoration of fertility (ability to impregnate females) after cessation of the injections (male rats [2]; all rats not sacrificed): ≤ 6 weeks; duration of treatment after which rats do not cause fertilization (male rats [2]; male rats, 1 milligram once a day): about 7 consecutive days; Testosterone(T) levels after cessation of treatment (male rats [2]; [5]): comparable to those of control animals within one week; time for prostate weights to recover (male rats [2]; [5]): 2-3 weeks; time for seminal vesicles weights to recover (male rats [2]; [5]): 4-5 weeks; binding affinity relative to LRF [3]: about 25 times that of LRF
CC(=O)N1CC=C[C@H]1C(=O)N[C@H](Cc1ccc(F)cc1)C(=O)N[C@H](Cc1c[nH]c2ccccc12)C(=O)N[C@@H](CO)C(=O)N[C@@H](Cc1ccc(O)cc1)C(=O)N[C@H](Cc1c[nH]c2ccccc12)C(=O)N[C@@H](CC(C)C)C(=O)N[C@@H](CCCNC(=N)N)C(=O)N1CCC[C@H]1C(=O)NCC(N)=O [Peptide A] (Ac-[ΔPro][dPhe(4-F)][dW]SY[dW]LRPG-NH2)	0.06	decrease	decrease	decrease	decrease	Full recovery	quickly lose their desire to mate	decreased	decreased	decreased	decreased	arrested spermatogenesis for a period of a few weeks	fertility (ability to sire offspring) at the end of the 2-week treatment period (male rats [4]; Group II: 1 milligram antagonist plus 0.2 mg. testosterone propionate(TP) daily): infertile; desire to mate (male rats [4]; Group II: 1 milligram antagonist plus 0.2 mg. testosterone propionate(TP) daily for 14 days): maintain their desire to mate; fertilization during treatment (male rats [2]; male rats Group I, 1 milligram every day, antagonist alone): none causes fertilization after the fourth injection
